Experimental data from article PMC12670160, “A drug-repurposing screen of FDA- and EMA-approved drugs identifies two NF-κB inhibitors active against eumycetoma” (Journal of Antimicrobial Chemotherapy, 2025).
Structures can show the parent of a compound that is named as a salt. The whole screen tested about 5,300 compounds, of which about 130 (2.5%) showed an effect of 50% or more. Some of the results follow.

system: M. mycetomatis strain mm55; conditions: primary screen, metabolic activity vs growth control; 96 h, 2 µM; inhibitor

| SMILES | % viability |
| --- | --- |
| O=C(O)c1cc([N+](=O)[O-])ccc1NCCCc1ccccc1 [ONC0001864, nppb] | 86.87% |
| CC[C@H](C)[C@H](NC(=O)[C@H](Cc1ccc(O)cc1)NC(=O)[C@@H](NC(=O)[C@H](CCCNC(=N)N)NC(=O)[C@@H](N)CC(=O)O)C(C)C)C(=O)N[C@@H](Cc1c[nH]cn1)C(=O)N1CCC[C@H]1C(=O)O [ONC0002012, angiotensin 17] | 92.07% |
| CONC(=N)c1ccc(-c2ccc(-c3ccc(C(=N)NOC)cc3)o2)cc1 [ONC0000712, pafuramidine] | 88.84% |
| CN1C(C(=O)Nc2ccccn2)C(=O)c2ccccc2S1(=O)=O (stereo not shown) [ONC0000491, piroxicam] | 59.07% |
| Cc1cc2c(OCC(CNC(C)(C)C)OC(=O)c3ccccc3)cccc2[nH]1 (stereo not shown) [ONC0002018, bopindolol malonate] | 78.31% |
| Cc1ccc(Sc2ccccc2N2CCNCC2)c(C)c1 [ONC0005476, vortioxetine hydrobromide] | 112.5% |
| COc1ccc(CN(CCN(C)C)c2ncccn2)cc1 [ONC0002843, thonzylamine hydrochloride] | 113.4% |
| O=C(/C=C/c1cccc(F)c1)NC1CC1 [ONC0002298, cinflumide] | 78.83% |
| CNCCC=C1c2ccccc2C=Cc2ccccc21 [ONC0002967, norcyclobenzaprine] | 163.7% |
| NCC(=O)CCC(=O)O [ONC0004291, aminolevulinic acid hydrochloride] | 48.43% |
| N[C@H](CSC(c1ccccc1)(c1ccccc1)c1ccccc1)C(=O)O [ONC0001742, strityllcysteine] | 48.39% |
| C[C@H](NC(=O)CCc1nc2ccccc2c(=O)[nH]1)c1ccccc1 [ONC0001681, me0328] | 86.28% |
| CC(C)[C@H](NS(=O)(=O)c1ccc(-c2ccc(Br)cc2)cc1)C(=O)O [ONC0003050, pd166793] | 65.92% |
| CNC(=NCCSCc1csc(N=C(N)N)n1)NC#N [ONC0000218, tiotidine] | 69.93% |
| CN1CCC(CNc2ccc3ncc(-c4cccc(OC(F)(F)F)c4)n3n2)CC1 [ONC0005001, sgi1776 free base] | 77.23% |
| N#C/C(=C\c1cccn1S(=O)(=O)c1cccc([N+](=O)[O-])c1)S(=O)(=O)c1ccc(F)cc1 [ONC0001054, amz30] | 89.83% |
| O=C(CCCN1CCC(O)(c2ccc(Cl)cc2)CC1)c1ccc(F)cc1 [ONC0000543, haloperidol] | 91.04% |
| Nc1ncnc2c1ncn2C1O[C@H](COP(=O)(O)O)[C@@H](O)[C@H]1O (stereo partly shown) [ONC0003358, adenosine 5monophosphate] | 77.31% |
| COc1cc2c(cc1OC)[C@@H]1Cc3ccc(OC)c(OC)c3CN1CC2 [ONC0004981, rotundine] | 87.52% |
| CCC(=O)O[C@]1(C(=O)COC(C)=O)CC[C@H]2[C@@H]3C[C@H](C)C4=CC(=O)C=C[C@]4(C)[C@H]3[C@@H](O)C[C@@]21C [ONC0002914, methylprednisoloneaceponate] | 81.53% |
| CC1(C)CC[C@]2(C(=O)O)CC[C@]3(C)[C@H](C(=O)C=C4[C@@]5(C)C=C(C#N)C(=O)C(C)(C)[C@@H]5CC[C@]43C)[C@@H]2C1 [ONC0003434, bardoxolone rta 401] | 58.72% |

| SMILES | % viability |
| --- | --- |
| CCC[N+]12C3C[C@H](C4C(O)[C@]5(C[C@@H]41)c1ccccc1N(C)[C@@H]35)[C@H](CC)[C@H]2O (stereo partly shown) [ONC0002893, neogilurytmal] | 98.09% |
| O=C(O)C[C@H](O)C[C@H](O)/C=C/c1c(C2CC2)nc2ccccc2c1-c1ccc(F)cc1 [ONC0004897, pitavastatin calcium livalo] | 159.5% |
| Cc1ccc(C)c(OCCCC(C)(C)C(=O)O)c1 [ONC0000359, gemfibrozil] | 71.17% |
| CCC1(C2=NCCN2)Cc2ccccc2O1 (stereo not shown) [ONC0001880, efaroxan hydrochloride] | 102.7% |
| Oc1ccc2ccccc2c1Cc1c(O)ccc2ccccc12 [ONC0003705, st1859] | 101.3% |
| O=C(O)c1ccc(NC(=O)[C@H](Cc2ccc(O)cc2)NC(=O)c2ccccc2)cc1 [ONC0002987, bentiromide] | 81.81% |
| Nc1ccncc1N [ONC0001213, pyridine34diamine] | 73.45% |
| CC1(C)CC(=O)c2c(C(F)(F)F)nn(-c3ccc(C(N)=O)c(N[C@H]4CC[C@H](OC(=O)CN)CC4)c3)c2C1 [ONC0004402, pf04929113 snx5422] | 102.9% |
| C[C@H](/C=C/[C@H](C)C(C)(C)O)[C@H]1CC[C@H]2/C(=C/C=C3C[C@@H](O)C[C@H](O)C3)CCC[C@]12C [ONC0003669, paricalcitol] | 75.78% |
| CCCCCCOc1nsnc1C1=CCCN(C)C1.O=C(O)C(=O)O [ONC0001841, xanomeline oxalate] | 152.3% |
| CN(C)c1ccc(/C=C2\CCCN=C2c2cccnc2)cc1 [ONC0002266, dmabanabaseine] | 49.52% |
| CC1(C)[C@@H](O)CC[C@]2(C)[C@H]3C(=O)C=C4[C@@H]5C[C@@](C)(C(=O)O)CC[C@]5(C)CC[C@@]4(C)[C@]3(C)CC[C@@H]12 [ONC0003205, enoxolone] | 101.1% |
| CS(=O)(=O)Oc1ccc2c(NC(N)=O)c(C(=O)c3ccc(Cl)cc3Cl)oc2c1 [ONC0003421, lirimilast] | 79.49% |
| C[C@]12CCC(=O)C=C1C=C[C@@H]1[C@@H]2CC[C@@]2(C)[C@H]1CC[C@@]21CCC(=O)O1 [ONC0003894, canrenone] | 81.47% |
| COC(=O)[C@@H](N)Cc1ccc(O)c(O)c1 [ONC0005588, melevodopa] | 66.62% |
| CC1CCc2c(cc(Br)c(F)c2Br)N1C=O (stereo not shown) [ONC0000212, ce3f4] | 63.34% |
| COCCOC(=O)C1=C(C)NC(C)=C(C(=O)OC(C)C)C1c1cccc([N+](=O)[O-])c1 (stereo not shown) [ONC0002462, nimodipine] | 59.68% |
| NCCS [ONC0004241, cysteamine hydrochloride] | 74.09% |
| COc1c(C)c2c(c(O)c1C/C=C(\C)CCC(=O)OCCN1CCOCC1)C(=O)OC2 [ONC0003904, mycophenolate mofetil] | 55.21% |
| N#CCCCSC(=N)N [ONC0001077, kevetrin hydrochloride] | 77.57% |
| COC(=O)CCc1ccc(OCC(O)CNC(C)C)cc1 (stereo not shown) [ONC0004507, esmolol hcl] | 65% |

| SMILES | % viability |
| --- | --- |
| Cc1nc[nH]c1CCN [ONC0003614, 4methylhistamine] | 60.02% |
| O=C(O)c1ccc(-n2nc(-c3ccccc3O)nc2-c2ccccc2O)cc1 [ONC0004860, deferasirox exjade] | 114.7% |
| COc1cc(Cc2cnc(N)nc2N)c(C(C)C)cc1OC [ONC0000829, ro3] | 96.85% |
| NC(=O)OCC(O)COc1ccc(Cl)cc1 (stereo not shown) [ONC0002294, chlorphensincarbamate] | 59.16% |
| O=C(Nc1nc(-c2cc(Cl)cs2)c(N2CCN(C3CCCCC3)CC2)s1)c1cnc(N2CCC(C(=O)O)CC2)c(Cl)c1 [ONC0002265, avatrombopag] | 50.97% |
| CCC(CC)(NC(=O)C(C)C)C(=O)N[C@@H](CCCNC(=N)N)C(=O)NC1(C(=O)NC(c2ccc(F)cc2)c2ccc(F)cc2)CCCC1 [ONC0004570, mm102] | 64.58% |
| O[C@@](Cc1nc(CC2(C(F)(F)F)CC2)c[nH]1)(c1ccc(-n2cccn2)cc1)C(F)(F)F [ONC0001832, mk5046] | 111.8% |
| O=C(O)C(O)C(O)C(=O)O (stereo not shown) [ONC0003328, tartaric acid] | 71.34% |
| O=c1[nH]c2ccccc2n1C1CCN(CCOc2ccccc2)CC1 [ONC0003728, oxiperomide] | 91.16% |
| Nc1nc(=O)c2c([nH]1)NC[C@H](CNc1ccc(C(=O)N[C@@H](CCC(=O)O)C(=O)O)cc1)N2C=O [ONC0004347, calcium levofolinate calcium folinate] | 141.7% |
| O=C1CCCCCCCCCCCCCCO1 [ONC0002133, oxacyclohexadecan2one] | 71.7% |
| Clc1ccc(CCCOCCCN2CCCCC2)cc1 [ONC0001415, bf2649] | 62.69% |
| COc1ccc(CCc2nc3cc(-c4c(C)noc4C)ccc3n2C[C@H](C)N2CCOCC2)cc1Cl [ONC0004319, sgccbp30] | 120.7% |
| Oc1cc2c(cc1O)C(Cc1cccc3ccccc13)NCC2 (stereo not shown) [ONC0001928, ys49] | 88.3% |
| O=C(O)c1cc2cccc([N+](=O)[O-])c2[nH]1 [ONC0004449, crt0044876] | 125.7% |
| O=C(O)C1CCC(c2cc3cccnc3c(-c3cccc(F)c3)n2)CC1 (stereo not drawn) [ONC0001997, trans483fluorophenyl17naphthyridin6ylcyclohexanecarboxylicacid] | 88.66% |
| CCOC(=O)c1c[nH]cn1 [ONC0001859, c751] | 100.3% |
| CCn1c(-c2nonc2N)nc2cncc(C(=O)N3CC[C@H](N)C3)c21 [ONC0001648, sb772077b] | 82.21% |
| C[C@H](Nc1cc(-c2cnn(C)c2)cc(Nc2cnccn2)n1)c1ccc(F)cc1 [ONC0001380, ilginatinib hydrochloride] | 92.74% |

As entered above.
Entry for NC(=O)OCC(O)COc1ccc(Cl)cc1 (stereo not shown) [ONC0002294, chlorphensincarbamate] under % viability: 59.16%
Entry for Cc1nc[nH]c1CCN [ONC0003614, 4methylhistamine] under % viability: 60.02%
Entry for CCOC(=O)c1c[nH]cn1 [ONC0001859, c751] under % viability: 100.3%
Entry for CC1CCc2c(cc(Br)c(F)c2Br)N1C=O (stereo not shown) [ONC0000212, ce3f4] under % viability: 63.34%
